Publication PMC10323247
Results are given in words; binding and its absence hold for the method and conditions named. In cells and extracts the contact can be indirect. Some results given as binding are weak or reduced against the parent protein; the word gives no strength. Sequences can lack the tags named with a protein.

Target: T1, HAUS2 with C-terminal mGFP-TEV-TwinStrep tag (human) (UniProt Q9NVX0)
T1 sequence: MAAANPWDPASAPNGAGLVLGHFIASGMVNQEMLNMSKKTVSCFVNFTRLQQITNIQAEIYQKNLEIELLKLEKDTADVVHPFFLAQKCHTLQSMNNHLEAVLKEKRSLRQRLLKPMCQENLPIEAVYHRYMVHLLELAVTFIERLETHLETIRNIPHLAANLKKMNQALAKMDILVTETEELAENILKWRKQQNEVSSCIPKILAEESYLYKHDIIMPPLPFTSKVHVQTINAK
Test: pull-down + SEC; eight subunits co-expressed in High Five cells; captured by the TwinStrep tag of HAUS2 on StrepTrap HP (lysis buffer with 400 mM NaCl), eluted with desthiobiotin, then Superose 6 Increase SEC (250 mM NaCl); subunits in fractions E2-E3 seen by SDS-PAGE and western blotting

binding: binds
Substance: HAUS7 (from UniProt Q99871-1 1-358)
